Drawing on article PMC11172336, “Exploring Syndecan-4 and MLP and Their Interaction in Primary Cardiomyocytes and H9c2 Cells” (Cells, 2024), this text covers binding for 3 molecules.

In assay [1] the target is recombinant 6xHis-MLP-WT (human) (UniProt P50461). Description: ELISA; wells coated with 10 µg of WT or mutated full-length 6xHis-MLP recombinant protein in PBS; biotinylated overlapping MLP-WT 30-mer peptides at 2–5 µM for two hours at 37 °C; signal of PBS-coated wells subtracted; both purified.
In assay [2] the target is MLP, endogenous in H9c2 cells (rat (endogenous in H9c2)) (UniProt P50463). Description: immunoblotting under native conditions; total lysates of H9c2 cells with or without retinoic acid and isoprenaline, native sample buffer, not boiled, SDS-containing running buffer; blot for MLP. For orientation: A western blot detects proteins with antibodies after separation by electrophoresis.

No constants are given. Whether binding was seen depends on the method and setting. Some results given as binding are weak or reduced against the parent protein; the word gives no strength.

B1: biotinylated MLP-WT peptide aa 100-129 (peptide, UniProt P50461 100-129)
peptide: RSVTTSNPSKFTAKFGESEKCPRCGKSVYA
modifications: N-terminal biotin tag
B1: the binding result in assay [1] was “binds weakly”.

B2: MLP, endogenous in H9c2 cells (protein, UniProt P50463 1-194)
chain: MPNWGGGAKCGACDKTVYHAEEIQCNGRSFHKTCFHCMACRKALDSTTVAAHESEIYCKVCYGRKYGPKGIGFGQGAGCLSTDTGEHLGLQFQQSPKPARAATTSNPSKFSAKFGESEKCPRCGKSVYAAEKVMGGGKPWHKTCFPCAICGKSLESTNVTDKDGELYCKVCYAKNFGPTGIGFGGLTHQVEKKE
On to B2, for which the binding entry in assay [2] is listed as “binds”.

B3: biotinylated MLP-WT peptide aa 165-194 (peptide, UniProt P50461 165-194)
peptide: ELYCKVCYAKNFGPTGIGFGGLTQQVEKKE
modifications: N-terminal biotin tag
Regarding B3, the binding entry in assay [1] is recorded as “binds weakly”.
